# Experimental data: US12351591B2, “KRas inhibitors” (ELI LILLY AND COMPANY, priority 2022, dated 2025)
# Some of these results come from one statement about several compounds together.
# Target: T1, KRas wild-type (Homo sapiens, UniProt P01116)
# T1 construct: host or cells: MKN-45
# Test: MKN-45 Cellular Active RAS GTPase ELISA (KRas Wild-type)
# Format: cell-based
# Conditions: PANC-1 versus MKN-45 Cellular Active RAS GTPase ELISA
row,Compound,selective inhibition preference for KRas G12D mutant over KRas wild-type
1,"COCCOCCN1CC2CCC(C1)N2c1nc(OC[C@@]23CCCN2C[C@H](F)C3)nc2c(F)c(-c3ncc(F)c4sc(N)c(C#N)c34)c3c(c12)COC3 [Example 220, 2-Amino-7-fluoro-4-[5-fluoro-3-[[(2R,8S)-2-fluoro-1,2,3,5,6,7-hexahydropyrrolizin-8-yl]methoxy]-1-[3-[2-(2-methoxyethoxy)ethyl]-3,8-diazabicyclo[3.2.1]octan-8-yl]-7,9-dihydrofuro[3,4-f]quinazolin-6-yl]thieno[3,2-c]pyridine-3-carbonitrile]",greater than 10 fold
2,"N#Cc1c(N)sc2c(F)cnc(-c3c4c(c5c(N6C7CCC6CN(CCCOCCO)C7)nc(OC[C@@]67CCCN6C[C@H](F)C7)nc5c3F)COC4)c12 [Example 225, 2-Amino-7-fluoro-4-[5-fluoro-3-[[(2R,8S)-2-fluoro-1,2,3,5,6,7-hexahydropyrrolizin-8-yl]methoxy]-1-[3-[3-(2-hydroxyethoxy)propyl]-3,8-diazabicyclo[3.2.1]octan-8-yl]-7,9-dihydrofuro[3,4-f]quinazolin-6-yl]thieno[3,2-c]pyridine-3-carbonitrile]",greater than 10 fold
3,"C[C@@H](O)CN1CC2CCC(C1)N2c1nc(OC[C@@]23CCCN2C[C@H](F)C3)nc2c(F)c(-c3cccc4oc(N)c(C#N)c34)c3c(c12)COC3 [Example 176, 2-Amino-4-[5-fluoro-3-[[(2R,8S)-2-fluoro-1,2,3,5,6,7-hexahydropyrrolizin-8-yl]methoxy]-1-[3-[(2R)-2-hydroxypropyl]-3,8-diazabicyclo[3.2.1]octan-8-yl]-7,9-dihydrofuro[3,4-f]quinazolin-6-yl]benzofuran-3-carbonitrile]",greater than 10 fold
4,"C[C@@H](O)CN1CC2CCC(C1)N2c1nc(OC[C@@H]2C[C@H](F)CN2C)nc2c(F)c(-c3c(F)ccc4sc(N)c(C#N)c34)c3c(c12)COC3 (single isomer, unassigned) [Example 186]",greater than 10 fold
5,"C[C@@H](O)CN1CC2CCC(C1)N2c1nc(OC[C@@]23CCCN2C[C@H](F)C3)nc2c(F)c(-c3cccc4sc(N)c(C#N)c34)c3c(c12)COC3 [Example 55, 2-Amino-4-[5-fluoro-3-[[(2R,8S)-2-fluoro-1,2,3,5,6,7-hexahydropyrrolizin-8-yl]methoxy]-1-[3-[(2R)-2-hydroxypropyl]-3,8-diazabicyclo[3.2.1]octan-8-yl]-7,9-dihydrofuro[3,4-f]quinazolin-6-yl]benzothiophene-3-carbonitrile]",greater than 10 fold
6,"COC1CN2CCCC2(COc2nc(N3C4CCC3CN(C[C@H]3CCO3)C4)c3c4c(c(-c5ncc(F)c6sc(N)c(C#N)c56)c(F)c3n2)COC4)C1.CS(=O)(=O)O (stereo partly drawn) [Example 231, 2-Amino-7-fluoro-4-[5-fluoro-3-[(2-methoxy-1,2,3,5,6,7-hexahydropyrrolizin-8-yl)methoxy]-1-[3-[[(2R)-oxetan-2-yl]methyl]-3,8-diazabicyclo[3.2.1]octan-8-yl]-7,9-dihydrofuro[3,4-f]quinazolin-6-yl]thieno[3,2-c]pyridine-3-carbonitrile methanesulfonic acid]",greater than 10 fold
7,"CO[C@H]1CN2CCC[C@@]2(COc2nc(N3C4CCC3CN(C[C@H]3CCO3)C4)c3c4c(c(-c5ncc(F)c6sc(N)c(C#N)c56)c(F)c3n2)COC4)C1.CS(=O)(=O)O [Example 234, 2-amino-7-fluoro-4-[5-fluoro-3-[[(2R,8S)-2-methoxy-1,2,3,5,6,7-hexahydropyrrolizin-8-yl]methoxy]-1-[3-[[(2R)-oxetan-2-yl]methyl]-3,8-diazabicyclo[3.2.1]octan-8-yl]-7,9-dihydrofuro[3,4-f]quinazolin-6-yl]thieno[3,2-c]pyridine-3-carbonitrile methanesulfonic acid]",greater than 10 fold
8,"N#Cc1c(N)sc2ccc(F)c(-c3c4c(c5c(N6C7CCC6CN(CCCO)C7)ncnc5c3F)COC4)c12 (single isomer, unassigned) [Example 49, 2-Amino-5-fluoro-4-[5-fluoro-1-[3-(3-hydroxypropyl)-3,8-diazabicyclo[3.2.1]octan-8-yl]-7,9-dihydrofuro[3,4-f]quinazolin-6-yl]benzothiophene-3-carbonitrile]",greater than 10 fold
9,"CN1CC2CCC(C1)N2c1nc(OC[C@@]23CCCN2C[C@H](F)C3)nc2c(F)c(-c3c(F)ccc4sc(N)c(C#N)c34)c3c(c12)COC3 (single isomer, unassigned) [Example 108]",greater than 10 fold
10,"N#Cc1c(N)oc2ccc(F)c(-c3c4c(c5c(N6C7CCC6CN(CCCO)C7)nc(OC[C@@]67CCCN6C[C@H](F)C7)nc5c3F)COC4)c12 (single isomer, unassigned) [Example 114]",greater than 10 fold
11,"C[C@@H](O)CN1CC2CCC(C1)N2c1nc(OC[C@@H]2CCCN2C)nc2c(F)c(-c3c(F)ccc4sc(N)c(C#N)c34)c3c(c12)COC3 (single isomer, unassigned) [Example 177]",greater than 10 fold
12,"N#Cc1c(N)sc2ccc(F)c(-c3c4c(c5c(N6C7CCC6CN(CCCO)C7)nc(OC[C@H]6COCCO6)nc5c3F)COC4)c12 (single isomer, unassigned) [Example 142]",greater than 10 fold
13,"Nc1nc2c(-c3c4c(c5c(N6C7CCC6CN(CCCO)C7)nc(OC[C@@]67CCCN6C[C@H](F)C7)nc5c3F)COC4)cccc2s1 [Example 28, 3-[8-[6-(2-Amino-1,3-benzothiazol-4-yl)-5-fluoro-3-[[(2R,8S)-2-fluoro-1,2,3,5,6,7-hexahydropyrrolizin-8-yl]methoxy]-7,9-dihydrofuro[3,4-f]quinazolin-1-yl]-3,8-diazabicyclo[3.2.1]octan-3-yl]propan-1-ol]",greater than 10 fold
14,"C[C@@H](O)CN1CC2CCC(C1)N2c1nc(OC[C@@H]2[C@@H](F)CCN2C)nc2c(F)c(-c3ncc(F)c4sc(N)c(C#N)c34)c3c(c12)COC3 [Example 351, 2-Amino-7-fluoro-4-[5-fluoro-3-[[(2R,3S)-3-fluoro-1-methyl-pyrrolidin-2-yl]methoxy]-1-[3-[(2R)-2-hydroxypropyl]-3,8-diazabicyclo[3.2.1]octan-8-yl]-7,9-dihydrofuro[3,4-f]quinazolin-6-yl]thieno[3,2-c]pyridine-3-carbonitrile]",greater than 10 fold
15,"CN1CC2CC(C1)N2c1nc(OC[C@@]23CCCN2C[C@H](F)C3)nc2c(F)c(-c3c(F)ccc4sc(N)c(C#N)c34)c3c(c12)COC3 (single isomer, unassigned) [Example 95]",greater than 10 fold
16,"COCCCN1CC2CCC(C1)N2c1nc(OC[C@@H]2CCCN2C)nc2c(F)c(-c3ncc(F)c4sc(N)c(C#N)c34)c3c(c12)COC3 [Example 236, 2-Amino-7-fluoro-4-[5-fluoro-1-[3-(3-methoxypropyl)-3,8-diazabicyclo[3.2.1]octan-8-yl]-3-[[(2S)-1-methylpyrrolidin-2-yl]methoxy]-7,9-dihydrofuro[3,4-f]quinazolin-6-yl]thieno[3,2-c]pyridine-3-carbonitrile]",greater than 10 fold
